PubChem BioAssay AID1671190 (National Center for Advancing Translational Sciences (NCATS), 2021)
Among all 580,000 compounds or so, about 6,100 (1.1%) were called active. The inconclusive results got no clear call from the source; some entries with a clear call stand among them for comparison. Calls follow the shape of the dose curve; as a rule, active = well fitted inhibition curve with a large enough effect; inconclusive = small, poorly fitted or top-dose-only effect, or another doubt; inactive = no such curve, though single readings can be large or run the other way. Where the call is inconclusive, the potency comes from a doubtful curve fit.

The chains behind the UniProt entries cited, without tags or fusion partners.
UniProt P18054, whole entry, looked up: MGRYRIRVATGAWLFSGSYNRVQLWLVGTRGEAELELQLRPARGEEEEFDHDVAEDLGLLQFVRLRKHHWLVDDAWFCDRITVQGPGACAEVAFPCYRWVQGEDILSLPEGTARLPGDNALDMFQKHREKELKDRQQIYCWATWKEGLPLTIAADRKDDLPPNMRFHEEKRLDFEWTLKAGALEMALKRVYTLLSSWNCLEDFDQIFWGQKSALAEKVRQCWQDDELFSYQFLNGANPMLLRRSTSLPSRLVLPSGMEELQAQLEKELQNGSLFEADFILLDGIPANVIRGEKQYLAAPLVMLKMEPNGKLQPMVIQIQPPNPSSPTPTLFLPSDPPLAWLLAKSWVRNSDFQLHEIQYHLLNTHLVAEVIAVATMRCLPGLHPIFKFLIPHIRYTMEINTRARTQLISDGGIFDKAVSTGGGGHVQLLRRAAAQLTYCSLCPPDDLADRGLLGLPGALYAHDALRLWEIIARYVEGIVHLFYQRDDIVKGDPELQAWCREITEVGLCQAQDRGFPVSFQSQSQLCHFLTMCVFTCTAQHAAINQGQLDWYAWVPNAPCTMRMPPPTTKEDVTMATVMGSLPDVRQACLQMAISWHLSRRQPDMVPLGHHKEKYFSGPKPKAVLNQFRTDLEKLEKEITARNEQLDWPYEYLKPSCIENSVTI

Target: Polyunsaturated fatty acid lipoxygenase ALOX12 (Homo sapiens) (UniProt P18054)
Test: Primary qHTS assay for inhibitors of human arachidonate 12S-lipoxygenase (ALOX12): Round 2
Conditions: purified 12hLO, xylenol orange hydroperoxide absorbance; activity change, negative = inhibition: at 108 µM (top of the series) unless noted
Outline: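 Hydroperoxide product was detected by ferrous iron/xylenol orange as the 573 to 405 nm absorbance ratio. Arachidonic acid at 40 uM (final) was turned over for 30 min at room temperature by 150 nM human 12hLO, pH 7.0 Hepes buffer, after 15 min compound preincubation.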
% is scaled to controls: 0 for no effect and ±100 for the full control effect; potency is read from the fitted curve at half-maximal effect.

| SMILES | Potency | activity change, negative = inhibition |
| --- | --- | --- |
| O=C(Nc1nc(-c2ccc(Cl)cc2Cl)cs1)C1CCN(C(=O)c2ccco2)CC1 | inconclusive: 35.5 µM [inhibitor, partial curve, poor fit] | – |
| O=C(COC(=O)c1cc[n+]([O-])cc1)Nc1cccc(Br)c1 | inconclusive: 50.1 µM [inhibitor, partial curve, poor fit] | – |
| COc1cccc(Cn2c(=O)n(-c3cc(C)cc(C)c3)c(=O)c3oc4ccccc4c32)c1 | – | inactive: 8.55% |
| Cc1ccc2nc(N3C(=O)C(O)=C(C(=O)c4ccco4)C3c3ccc(O)cc3)sc2c1 (stereo not drawn) | inconclusive: 44.7 µM [inhibitor, partial curve, poor fit] | – |
| CCCCc1cc(=O)oc2cc(O)cc(O)c12 | inconclusive: 56.2 µM [inhibitor, partial curve, poor fit] | – |
| Cc1ccc(-c2noc(CCC(=O)NC3CCN(Cc4ccccc4)CC3)n2)cc1 | inconclusive: 56.2 µM [inhibitor, partial curve, poor fit] | – |
| Cc1c(Cl)cccc1-c1ccc(C(=O)Nc2ccc3oc(-c4cccnc4)nc3c2)o1 | inconclusive: 63.1 µM [inhibitor, single point] | – |
| S=c1[nH]nc(COc2ccc(Cl)cc2)n1Cc1ccco1 | active: 39.8 µM | – |
| Cc1c(C(=O)NC(C)c2ccc(F)c(F)c2)[nH]c2c1C(=O)CC(C)(C)C2 (stereo not drawn) | inconclusive: 112 µM [inhibitor, single point] | – |
| Cc1ccccc1COC(=O)C1Cc2ccccc2C(=O)O1 (stereo not drawn) | inconclusive: 112 µM [inhibitor, single point] | – |
| Cc1cc(C)c2nc(SCC(=O)NCCC3=CCCCC3)cc(C)c2c1 | active: 15.8 µM | – |
| O=C(NCc1cccnc1)c1ccc2c(=O)n(CCCN3CCCC3=O)c(=S)[nH]c2c1 | inconclusive: 15.8 µM [inhibitor, partial curve, poor fit] | – |
| C[C@@H]1[C@H](C)CC[C@]2(C(=O)O)CC[C@]3(C)C(=CC[C@@H]4[C@@]5(C)C[C@@H](O)[C@H](O)[C@@](C)(CO)[C@H]5CC[C@]43C)[C@@H]12 | inconclusive: 48.5 µM [inhibitor, single point] | – |
| CC(=O)c1c(C)[nH]c(C(=O)COC(=O)c2ccc(C)s2)c1C | – | inactive: -7.55% |
| O=C(c1ccccc1F)N(Cc1ccc2[nH]ccc2c1)C1CC1 | – | inconclusive: -52.7% [inhibitor] |
| COc1cc(CNCCSc2nnnn2C)ccc1OCc1ccccc1 | inconclusive: 79.4 µM [inhibitor, partial curve, poor fit] | – |
| CCOC1CCCc2oc(-c3ccsc3)c(-c3cnc(OC)nc3)c21 (stereo not drawn) | inconclusive: 44.7 µM [inhibitor, partial curve, poor fit] | – |
| CCc1sc(C(=O)Nc2ccccc2C)cc1C | inconclusive: 35.5 µM [inhibitor, partial curve, poor fit] | – |
| COc1ccc(-c2nc3n(c2C)CCC3)cc1 | inconclusive: 112 µM [inhibitor, single point] | – |
| CCCCCCCCN1C(=O)[C@H](CC(=O)N2CCSCC2)C[C@@]2(C(=O)OC)CC(C)(C)CC=C12 | inconclusive: 50.1 µM [inhibitor, partial curve, poor fit] | – |
| O=C(NC(NC(=S)Nc1ccccc1O)C(Cl)(Cl)Cl)c1ccco1 (stereo not drawn) | inconclusive: 50.1 µM [inhibitor, full curve, poor fit] | – |

In the list so far, three have a thiophene ring, fused or not.

| SMILES | Potency | activity change, negative = inhibition |
| --- | --- | --- |
| CC(=O)c1c(C)[nH]c(C(=O)COC(=O)c2ccc(C)s2)c1C | – | inactive: -7.55% |
| CCOC1CCCc2oc(-c3ccsc3)c(-c3cnc(OC)nc3)c21 (stereo not drawn) | inconclusive: 44.7 µM [inhibitor, partial curve, poor fit] | – |
| CCc1sc(C(=O)Nc2ccccc2C)cc1C | inconclusive: 35.5 µM [inhibitor, partial curve, poor fit] | – |

Further compounds.

| SMILES | Potency | activity change, negative = inhibition |
| --- | --- | --- |
| C(=Nc1ccccc1)c1ccccc1OCc1ccccc1 | inconclusive: 39.8 µM [inhibitor, partial curve] | – |
| COc1cccc(NC(=O)NC[C@H]2O[C@@H](CO)[C@@H](O)[C@H]2N2CCN(c3ccc(F)cc3)CC2)c1 | – | inactive: 52.9% |
| Cc1cc2nc3c(=O)n(Cc4ccccc4)c(=O)[nH]c3nc2cc1N | inconclusive: 6.31 µM [inhibitor, partial curve, poor fit] | – |
| O=C(CSc1c2c(nc3cc(Cl)ccc13)CCCC2)NCc1cccs1 | – | inactive: -27.1% |
| O=C1Nc2ccccc2CNC12CCN(Cc1ccc(Cl)cc1)CC2 | inconclusive: 89.1 µM [inhibitor, single point] | – |
| CC1CCC(C(=O)NC(C(=O)NCCCN2CCOCC2)C(C)C)CC1 (stereo not drawn) | inconclusive: 0.398 µM [inhibitor, full curve, poor fit] | – |
| COCCn1c(SCC(=O)c2ccc(Cl)cc2)nnc1-c1ccncc1 | inconclusive: 39.8 µM [inhibitor, partial curve, poor fit] | – |
| Cc1[nH]c2ccccc2c1C(c1cccc(O)c1)c1c(C)[nH]c2ccccc12 | inconclusive: 25.1 µM [inhibitor, full curve, poor fit] | – |
| O=C(Cn1cccc1-c1nc(-c2ccc3c(c2)OCO3)no1)NCCc1ccc(Cl)cc1 | – | inactive: 27.2% |
| O=C(/C=C/c1ccc(F)cc1)NCCc1ccccn1 | – | inactive: 28.5% |
| Cc1ccccc1NC(=O)/C(C#N)=C/c1ccccc1C(F)(F)F | – | inactive: -29% |
| O=C(c1cccnc1)N1N=C(C2CC2)CC1(O)C(F)(F)F (stereo not drawn) | – | inactive: 2.24% |
| COc1ccc(N2CCN(C(=O)c3c(C)oc4ncn(CC(C)C)c(=O)c34)CC2)cc1 | inconclusive: 50.1 µM [inhibitor, partial curve, poor fit] | – |
| Cc1nn(C)c(-c2n[nH]c(=S)n2-c2ccccc2)c1Cl | inconclusive: 39.8 µM [inhibitor, partial curve, poor fit] | – |
| Cc1noc(/C=C\c2ccc(S(=O)(=O)N3CCc4ccccc43)cc2)c1NC(=O)C1CC1 | – | inactive: -15.1% |
| C/C=C/C=C/C(=O)N1CC2(CC(c3cccc(NC(=O)/C=C/C)c3)=NO2)C[C@@H]1C(N)=O (stereo partly drawn) | inconclusive: 112 µM [inhibitor, partial curve, poor fit] | – |
| CCOc1ccc(NC(=O)C(C)Oc2ccccc2OC)c2cccnc12 (stereo not drawn) | – | inactive: -11.9% |
| O=C1CC(c2ccccc2)CC(=O)C1CS(=O)(=O)c1ccccc1 (stereo not drawn) | – | inactive: -28.2% |
| COc1ccc(C(C)N(C)Cc2nc(N3CCN(C(=O)c4ccco4)CC3)c3ccccc3n2)cc1 (stereo not drawn) | inconclusive: 39.8 µM [inhibitor, partial curve, poor fit] | – |
| COc1ccc(NS(=O)(=O)c2cc(-c3cnc(C4CC4)o3)ccc2C)cc1OC | inconclusive: 89.1 µM [inhibitor, single point] | – |
| Cc1ccc(S(=O)(=O)NCC(=O)NCC(=O)OCc2c(F)cccc2Cl)cc1 | inconclusive: 7.94 µM [inhibitor, partial curve, poor fit] | – |

| SMILES | Potency | activity change, negative = inhibition |
| --- | --- | --- |
| COc1ccc(-c2cc(C(F)(F)F)nc(SCC(=O)NCc3ccco3)n2)cc1OC | inconclusive: 44.7 µM [inhibitor, partial curve, poor fit] | – |
| CC(C)C(CNC(=O)CCc1ncc(-c2ccc(F)cc2)o1)N(C)C (stereo not drawn) | – | inactive: 19.6% |
| Cc1ccccc1Nc1nc(CSc2nnnn2-c2ccccc2)cs1 | inconclusive: 44.7 µM [inhibitor, single point] | – |
| COc1cc(/C=N/O)cc(Br)c1OCc1ccc(Cl)cc1 | inconclusive: 17.8 µM [inhibitor, partial curve, poor fit] | – |
| CC(=O)c1c(OS(=O)(=O)c2cccc3cc(C)cnc23)ccc2c(C)cc(=O)oc12 | inconclusive: 35.5 µM [inhibitor, partial curve] | – |
| CS(=O)(=O)Oc1ccc2c(=O)c(Oc3ccccc3Br)c(C(F)(F)F)oc2c1 | inconclusive: 0.631 µM [inhibitor, full curve, poor fit] | – |
| O=C(Nc1ccccc1)OC[C@@H]1C=CS(=O)(=O)N1Cc1ccc(Br)cc1 | inconclusive: 89.1 µM [inhibitor, partial curve, poor fit] | – |
| CC1CCC(=O)N(CCOc2ccccc2)CC1 (stereo not drawn) | – | inactive: -0.294% |
| CCC1=NN2C(=N)/C(=C/c3ccc(OS(=O)(=O)c4ccc(C)cc4)c(OC)c3)C(=O)N=C2S1 | – | inactive: 9.6% |
| O=C(CCNS(=O)(=O)c1ccccc1C(F)(F)F)N1CCN(C(c2ccccc2)c2ccccc2)CC1 | – | inactive: 2.26% |
| Cc1ccc2c(CN3CCc4cc(S(N)(=O)=O)ccc43)cc(=O)oc2c1 | inconclusive: 44.7 µM [inhibitor, partial curve, poor fit] | – |
| CC(C)(C)OC(=O)N1CCC(CC2CC(c3cccc(Br)c3)=NO2)(C(=O)NCC2CCCCC2)CC1 (stereo not drawn) | – | inactive: -4.22% |
| CCCCN(CC)Cc1ccc(CNC(=O)Nc2ccc(Cl)cc2)o1 | inconclusive: 112 µM [inhibitor, single point] | – |
| CC1C(=O)N(Cc2cn(CC3CCCCC3)nn2)CCS(=O)(=O)N1Cc1ccc(-c2cccc(CO)c2)cc1 (stereo not drawn) | inconclusive: 31.6 µM [inhibitor, partial curve] | – |
| COc1ccc(-c2nc(SCC(=O)NCCc3ccccc3)n3[nH]c(=O)cc3n2)cc1 | – | inactive: 3.84% |
| COc1ccc(/C=C/C(=O)c2ccccn2)cc1 | inconclusive: 22.4 µM [inhibitor, full curve, poor fit] | – |
| CC(=O)Nc1ccc(CNC2CCCC(C)C2C)cc1 (stereo not drawn) | inconclusive: 0.355 µM [inhibitor, full curve, poor fit] | – |
| CCc1ccc(N(CC(=O)Nc2ccccc2C(=O)NCC2CCCO2)S(C)(=O)=O)cc1 (stereo not drawn) | inconclusive: 0.0891 µM [inhibitor, full curve, poor fit] | – |
| CCCNC(=O)c1ccccc1NC(=O)c1ccc2c(=O)n3c(nc2c1)CCC3 | inconclusive: 56.2 µM [inhibitor, partial curve, poor fit] | – |
| COc1ccccc1N1CCN(/N=C/c2ccc(Cl)c([N+](=O)[O-])c2)CC1 | inconclusive: 79.4 µM [inhibitor, single point] | – |
| O=C(c1ccc2c(c1)OCO2)N1CCC(c2nnc3n2CCNC3)CC1 | active: 10 µM | – |
